Measurements reported in patent US20030175703.
For part of these data: Negatives hold for the conditions tested. For part of these data: Where a protein sequence is shown, tags need not be part of it.

Key:
[1] = system: thrombin (F2) (Homo sapiens); test: inhibition of the protein; details: 2'-F pyrimidines, purified native protein, dose not given here
[2] = system: coagulation factor Xa (FXa); test: inhibition of the protein
[3] = system: coagulation factor VIIa (FVIIa); test: inhibition of the protein
[4] = system: coagulation factor IXa (FIXa); test: inhibition of the protein; details: 2'-F pyrimidines; 10 nM RNA inhibits FIXa/FVIIIa activation of FX, 37 C; prolongs aPTT; purified native protein
[5] = molecular target: T1, angiopoietin-1 (Ang1*) (Homo sapiens) (UniProt Q15389); test: activity in cells; details: 2'-F pyrimidines; abrogates Tie2 autophosphorylation in 293 cells with 13 nM Ang1*; purified recombinant protein; protein details: Regeneron Pharmaceuticals
T1 sequence (looked up, limits assumed): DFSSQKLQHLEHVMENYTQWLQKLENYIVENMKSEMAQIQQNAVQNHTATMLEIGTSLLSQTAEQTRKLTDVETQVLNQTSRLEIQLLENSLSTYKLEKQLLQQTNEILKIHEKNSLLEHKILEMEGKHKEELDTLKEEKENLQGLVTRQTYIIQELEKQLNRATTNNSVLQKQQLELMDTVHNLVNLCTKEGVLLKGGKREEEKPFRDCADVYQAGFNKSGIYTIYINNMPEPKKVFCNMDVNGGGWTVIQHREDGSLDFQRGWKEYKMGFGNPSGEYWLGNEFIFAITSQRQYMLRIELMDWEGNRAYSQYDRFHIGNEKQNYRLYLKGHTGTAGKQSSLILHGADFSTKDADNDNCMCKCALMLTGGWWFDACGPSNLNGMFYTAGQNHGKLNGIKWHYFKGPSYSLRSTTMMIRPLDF

angiopoietin-2 (Ang2) = molecular target: T2, angiopoietin-2 (Ang2) (UniProt O15123); test: activity in cells; details: 2'-F pyrimidines; increases endothelial apoptosis with 15 nM Ang2; purified recombinant protein
T2 sequence (looked up, limits assumed): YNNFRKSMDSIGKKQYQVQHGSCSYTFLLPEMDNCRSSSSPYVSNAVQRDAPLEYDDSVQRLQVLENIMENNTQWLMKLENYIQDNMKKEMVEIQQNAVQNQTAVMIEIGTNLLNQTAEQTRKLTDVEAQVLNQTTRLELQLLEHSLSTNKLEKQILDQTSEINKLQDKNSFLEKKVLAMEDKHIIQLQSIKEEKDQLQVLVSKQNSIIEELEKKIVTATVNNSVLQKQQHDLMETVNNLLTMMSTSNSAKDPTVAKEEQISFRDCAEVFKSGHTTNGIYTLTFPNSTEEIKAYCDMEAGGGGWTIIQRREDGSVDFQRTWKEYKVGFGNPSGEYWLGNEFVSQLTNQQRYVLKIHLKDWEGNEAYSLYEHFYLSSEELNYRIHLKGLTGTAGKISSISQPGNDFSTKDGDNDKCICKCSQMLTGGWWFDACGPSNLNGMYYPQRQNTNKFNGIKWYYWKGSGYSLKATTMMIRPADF

## GGGAACAAAGCUGAAGUACUUACCC [TOG 25 short (TOGGLE-25t)]
[1]; platelet activation below 20%, variant of TOG 25 (TOGGLE-25)
  functional effect of the aptamer: active

## GAGAGCCCCAGCGAGAUAAUACUUGGCCCCGCUCUU [11.F7t]
[2]; 2'-F pyrimidines, prolongs PT and APTT of human plasma, purified native protein, dose not given here
  functional effect of the aptamer: active

## GGGAACAAAGCUGAAGUACAAACCC [TOG 25 short BULGE Us]
[1]; platelet activation about 90%, no inhibition, variant of TOG 25 short (TOGGLE-25t)
  functional effect of the aptamer: not active

## GGGAGAGAGGAAGAGGGAUGGGAAAAUAGCCCCAGCGAGAUAAUACUUGGCCCCGCUACUACCAUAACCCAGAGGUCGAUAGUACUGGAUCC [RNA 10.14]
[2]; 100 nM RNA inhibits FXa/FVa prothrombin activation, 37 C
  functional effect of the aptamer: active

## GGGAGAGAGGAAGAGGGAUGGGAAGCUCCAUCCAAGCGACGACACGCUCGUCCCGAAAAGAAUCAUAACCCAGAGGUCGAU [10.15]
[3]; 2'-F pyrimidines, prolongs PT of human plasma, not APTT, purified native protein, dose not given here
  functional effect of the aptamer: active

## GGGAGAGAGGAAGAGGGAUGGGGACUAUACCGCGUAAUGCUGCCUCCCCAUUCCGGAACGCUCAUAACCCAGAGGUCGAUAGUACUGGAUCCCCCC [RNA 9.3]
[4]
  functional effect of the aptamer: active

## GGGAGAGAGGAAGAGGGAUGGGUACAGAGGAGUACAAGUAGCAUGAUCCCCUCGUGUAAAAACAUAACCCAGAGGUCGAUAGUACUGGAUCCCCCC [RNA 16.3]
[3]; 2'-NH2 pyrimidines, 1 uM RNA inhibits FVIIa/TF activation of FX, 25 C
  functional effect of the aptamer: active

## GGGAGAGAGGAAGAGGGAUGGGACUCGAACAUUUCCACUAACCAACCAUACUAAAGCACCGCCAUAACCCAGAGGUCGAUAGUACUGGAUCCCCCC [ANG9-4]
[5]
  functional effect of the aptamer: active

## GGGAGGACGAUGCGGACUAGCCUCAUCAGCUCAUGUGCCCCUCCGCCUGGAUCACCAGACGACUCGCUGAGGAUCCGAGA [ANG11-1]
angiopoietin-2 (Ang2)
  functional effect of the aptamer: active
